# Reference: PMC10147604
# Amino acid sequences for entries named in this document (tags omitted).
# UniProt Q93009: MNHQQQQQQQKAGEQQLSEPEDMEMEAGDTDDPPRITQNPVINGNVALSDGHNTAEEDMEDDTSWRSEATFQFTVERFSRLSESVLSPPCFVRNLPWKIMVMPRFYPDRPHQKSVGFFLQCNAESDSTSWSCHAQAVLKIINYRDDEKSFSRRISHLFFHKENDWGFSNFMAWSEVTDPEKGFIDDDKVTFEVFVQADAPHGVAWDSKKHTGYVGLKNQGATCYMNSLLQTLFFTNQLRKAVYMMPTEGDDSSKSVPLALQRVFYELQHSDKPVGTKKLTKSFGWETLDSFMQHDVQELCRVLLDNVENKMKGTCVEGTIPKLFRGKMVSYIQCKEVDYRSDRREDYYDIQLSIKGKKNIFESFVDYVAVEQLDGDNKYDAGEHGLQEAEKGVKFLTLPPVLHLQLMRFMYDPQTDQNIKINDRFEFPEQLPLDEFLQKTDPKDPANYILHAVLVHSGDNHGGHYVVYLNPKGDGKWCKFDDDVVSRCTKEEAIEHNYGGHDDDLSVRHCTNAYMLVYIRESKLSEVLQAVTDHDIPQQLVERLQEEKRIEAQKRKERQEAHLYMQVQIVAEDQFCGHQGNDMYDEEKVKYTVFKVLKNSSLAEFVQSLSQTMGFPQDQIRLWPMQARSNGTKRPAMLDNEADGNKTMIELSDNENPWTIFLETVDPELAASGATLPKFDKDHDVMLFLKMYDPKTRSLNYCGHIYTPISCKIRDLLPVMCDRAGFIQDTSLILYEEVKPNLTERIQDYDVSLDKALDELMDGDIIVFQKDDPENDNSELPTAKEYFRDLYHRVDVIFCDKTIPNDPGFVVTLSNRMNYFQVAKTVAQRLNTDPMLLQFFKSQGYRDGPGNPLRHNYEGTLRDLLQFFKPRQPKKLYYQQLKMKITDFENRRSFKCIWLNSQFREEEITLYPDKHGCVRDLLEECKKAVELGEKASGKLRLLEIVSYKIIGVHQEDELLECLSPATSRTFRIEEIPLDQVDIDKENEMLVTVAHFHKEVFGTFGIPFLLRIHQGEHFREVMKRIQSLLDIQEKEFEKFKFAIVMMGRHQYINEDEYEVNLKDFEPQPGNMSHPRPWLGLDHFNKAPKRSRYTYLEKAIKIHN
# Results are given in words; binding and its absence hold for the method and conditions named. In cells and extracts the contact can be indirect. A yes stands for co-enrichment or nearness to the bait. Other partners may have been found. Sequences can lack the tags named with a protein.
# Molecular target: T1, N-terminally HA-tagged NGN3 (HA-NGN3^WT) (UniProt P70661)
# T1 sequence: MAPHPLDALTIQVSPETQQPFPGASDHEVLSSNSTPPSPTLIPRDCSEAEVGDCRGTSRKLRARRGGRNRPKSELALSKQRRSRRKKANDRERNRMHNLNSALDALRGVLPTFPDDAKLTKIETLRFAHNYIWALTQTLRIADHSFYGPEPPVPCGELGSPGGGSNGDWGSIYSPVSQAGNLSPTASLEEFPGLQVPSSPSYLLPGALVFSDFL
# Experiment: affinity purification with mass spectrometry; anti-HA magnetic beads on lysates of HEK293A cells transfected with pcDNA3-HA-NGN3 (duplicates) or empty pcDNA3; NP-40 lysis buffer; LC-MS/MS of gel sections
substance,measurement,value
endogenous USP7 (from UniProt Q93009 1-1102) (enzyme),binding,binds
